From publication PMC8415483

Protein sequences, listed by entry. Tags and fused reporters are not part of them.
UniProt P25098: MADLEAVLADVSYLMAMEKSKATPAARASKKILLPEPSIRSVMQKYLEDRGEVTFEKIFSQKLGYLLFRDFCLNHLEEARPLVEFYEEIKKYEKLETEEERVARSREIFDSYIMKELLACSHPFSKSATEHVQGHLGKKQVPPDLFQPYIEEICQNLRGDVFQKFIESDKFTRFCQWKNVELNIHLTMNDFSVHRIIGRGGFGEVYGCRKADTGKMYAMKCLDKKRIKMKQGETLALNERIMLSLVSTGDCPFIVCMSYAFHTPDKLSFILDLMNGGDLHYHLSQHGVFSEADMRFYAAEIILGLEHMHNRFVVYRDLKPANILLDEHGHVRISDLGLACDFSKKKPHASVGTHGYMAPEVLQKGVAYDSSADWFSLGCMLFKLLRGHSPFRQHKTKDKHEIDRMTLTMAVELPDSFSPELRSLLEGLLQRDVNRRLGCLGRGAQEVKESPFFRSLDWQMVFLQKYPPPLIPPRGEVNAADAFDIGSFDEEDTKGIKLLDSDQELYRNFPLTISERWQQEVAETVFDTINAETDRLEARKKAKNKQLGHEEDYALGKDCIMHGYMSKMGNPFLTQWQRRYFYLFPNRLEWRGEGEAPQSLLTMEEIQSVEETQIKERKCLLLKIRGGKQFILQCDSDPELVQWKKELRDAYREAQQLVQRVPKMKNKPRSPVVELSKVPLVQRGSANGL
UniProt P29067: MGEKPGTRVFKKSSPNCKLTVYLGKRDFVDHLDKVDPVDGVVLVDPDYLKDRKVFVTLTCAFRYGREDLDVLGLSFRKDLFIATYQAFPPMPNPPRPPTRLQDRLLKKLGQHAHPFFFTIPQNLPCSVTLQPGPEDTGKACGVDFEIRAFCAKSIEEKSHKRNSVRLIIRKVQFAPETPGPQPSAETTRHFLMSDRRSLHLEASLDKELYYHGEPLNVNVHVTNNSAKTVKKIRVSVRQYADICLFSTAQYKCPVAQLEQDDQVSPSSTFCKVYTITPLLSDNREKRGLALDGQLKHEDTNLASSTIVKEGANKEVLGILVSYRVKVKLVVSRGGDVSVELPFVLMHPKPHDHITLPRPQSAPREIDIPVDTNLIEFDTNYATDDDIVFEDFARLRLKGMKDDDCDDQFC
UniProt P35626: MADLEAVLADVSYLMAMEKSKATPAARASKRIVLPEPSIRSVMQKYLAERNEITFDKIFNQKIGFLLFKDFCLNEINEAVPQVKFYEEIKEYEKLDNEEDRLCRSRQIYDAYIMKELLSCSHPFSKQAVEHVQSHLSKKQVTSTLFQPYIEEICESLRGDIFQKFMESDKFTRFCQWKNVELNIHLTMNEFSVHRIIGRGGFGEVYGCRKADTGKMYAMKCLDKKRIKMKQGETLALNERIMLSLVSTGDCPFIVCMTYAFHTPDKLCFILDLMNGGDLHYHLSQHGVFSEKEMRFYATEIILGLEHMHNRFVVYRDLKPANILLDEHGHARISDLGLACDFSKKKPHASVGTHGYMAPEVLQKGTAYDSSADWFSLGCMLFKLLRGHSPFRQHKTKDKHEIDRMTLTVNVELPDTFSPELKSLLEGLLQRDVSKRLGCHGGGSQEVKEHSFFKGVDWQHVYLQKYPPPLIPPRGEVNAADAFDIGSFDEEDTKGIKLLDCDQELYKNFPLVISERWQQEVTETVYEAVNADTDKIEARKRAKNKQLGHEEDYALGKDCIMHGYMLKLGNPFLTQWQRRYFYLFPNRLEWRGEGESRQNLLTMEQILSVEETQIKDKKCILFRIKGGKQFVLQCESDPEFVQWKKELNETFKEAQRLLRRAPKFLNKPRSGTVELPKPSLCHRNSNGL

Columns and labels:
[1] = target: CB2R-Q63R–BirA-R118G (human) (UniProt P34972); assay: proximity labelling; CB2R–BirA-R118G expressed in HEK 293T; 10 μM JWH-133 and biotin; biotinylated endogenous proteins pulled down, immunoblot for GRK2 and GRK3, densities normalised to streptavidin staining
[2] = target: CB2R–BirA-R118G (wild-type human CB2R fused to promiscuous biotin ligase) (human) (UniProt P34972); assay: as above
[3] = target: CB2R-L133I–BirA-R118G (human) (UniProt P34972); assay: as above
[4] = target: CB2R-Q63R–BirA-R118G (human) (UniProt P34972); assay: proximity labelling; CB2R–BirA-R118G and β-arrestin2–Venus co-expressed in HEK 293T; 10 μM JWH-133 and 100 μM biotin for 20–24 h; RIPA lysate, biotinylated proteins pulled down on NeutrAvidin-agarose, high-salt washes; Venus fluorescence on the beads
[5] = target: CB2R–BirA-R118G (wild-type human CB2R fused to promiscuous biotin ligase) (human) (UniProt P34972); assay: as above
[6] = target: CB2R-L133I–BirA-R118G (human) (UniProt P34972); assay: as above

Measured: binding

GRK2 (G protein-coupled receptor kinase 2), endogenous (from UniProt P25098 1-689) (enzyme)
binds: [1] | [2] | [3]

β-arrestin2–Venus (from UniProt P29067 1-410)
binds: [4] | [5] | [6]

GRK3 (G protein-coupled receptor kinase 3), endogenous (from UniProt P35626 1-688) (enzyme)
binds: [1] | [2] | [3]

Results are given in words; binding and its absence hold for the method and conditions named. Binding seen in cells or lysates may run through a third protein. A yes stands for co-enrichment or nearness to the bait. Other partners may have been found.
